Reference: paper doi:10.1101/2025.07.07.663440
Read-outs that look alike come from different tables or passages of the source. Results are given in words; binding and its absence hold for the method and conditions named. In cells and extracts the contact can be indirect. Some entries that bind do so weakly or less than the wild type.

By UniProt entry, the sequences of proteins in these tests, tags left out.
UniProt Q13263: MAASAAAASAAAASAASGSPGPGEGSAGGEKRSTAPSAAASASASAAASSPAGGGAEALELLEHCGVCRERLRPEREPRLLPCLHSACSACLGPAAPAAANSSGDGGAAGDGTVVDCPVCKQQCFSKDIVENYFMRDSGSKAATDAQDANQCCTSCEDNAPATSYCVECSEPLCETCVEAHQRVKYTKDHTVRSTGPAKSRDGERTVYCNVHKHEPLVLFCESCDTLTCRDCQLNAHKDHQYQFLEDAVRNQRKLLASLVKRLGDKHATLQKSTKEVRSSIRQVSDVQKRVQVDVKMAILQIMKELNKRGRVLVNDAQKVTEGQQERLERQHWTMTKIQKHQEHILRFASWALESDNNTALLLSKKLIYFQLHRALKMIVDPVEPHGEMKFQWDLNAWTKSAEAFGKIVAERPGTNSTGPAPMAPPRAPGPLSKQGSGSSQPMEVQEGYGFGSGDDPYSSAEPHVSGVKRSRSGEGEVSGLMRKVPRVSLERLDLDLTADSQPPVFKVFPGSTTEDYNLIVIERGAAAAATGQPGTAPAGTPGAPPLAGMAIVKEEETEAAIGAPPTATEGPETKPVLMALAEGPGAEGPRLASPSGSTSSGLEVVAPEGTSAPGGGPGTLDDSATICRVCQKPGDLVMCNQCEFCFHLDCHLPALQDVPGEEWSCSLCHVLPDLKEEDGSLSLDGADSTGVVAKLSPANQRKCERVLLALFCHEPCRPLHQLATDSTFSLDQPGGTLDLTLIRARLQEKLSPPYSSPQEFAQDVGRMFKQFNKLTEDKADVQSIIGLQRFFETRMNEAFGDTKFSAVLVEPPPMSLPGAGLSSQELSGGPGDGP

Key:
[1] = target: T1, USP39 Venus BiFC construct (UniProt Q53GS9); assay: split reporter
T1 sequence: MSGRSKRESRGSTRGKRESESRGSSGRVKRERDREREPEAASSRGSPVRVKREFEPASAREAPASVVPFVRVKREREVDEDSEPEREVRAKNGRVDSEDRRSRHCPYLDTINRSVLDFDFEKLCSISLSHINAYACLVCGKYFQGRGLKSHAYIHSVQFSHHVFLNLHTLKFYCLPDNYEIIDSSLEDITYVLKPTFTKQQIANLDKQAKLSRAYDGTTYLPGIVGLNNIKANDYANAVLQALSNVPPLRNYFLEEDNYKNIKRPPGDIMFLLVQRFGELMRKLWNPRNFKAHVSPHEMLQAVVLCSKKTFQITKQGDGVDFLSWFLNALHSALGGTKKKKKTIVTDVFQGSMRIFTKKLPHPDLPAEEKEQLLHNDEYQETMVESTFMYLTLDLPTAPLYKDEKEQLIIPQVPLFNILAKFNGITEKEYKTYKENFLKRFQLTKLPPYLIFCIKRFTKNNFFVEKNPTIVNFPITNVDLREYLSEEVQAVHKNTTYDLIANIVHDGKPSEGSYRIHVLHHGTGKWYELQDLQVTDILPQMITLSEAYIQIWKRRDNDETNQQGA

[2] = target: T1, USP39 Venus BiFC construct; assay: split reporter; remark: listed apart in the source
USP39-mCherry (wildtype) = target: T2, USP39-mCherry (wildtype) (UniProt Q53GS9); assay: co-IP
T2 sequence: T1 sequence

binding [1]	binding [2]	binding (USP39-mCherry (wildtype))	Substance
binds	binds		TRIM28 Venus BiFC construct (from UniProt Q13263 1-835)
		binds	Tripartite motif-containing 28 protein (TRIM28), endogenous, non-phosphorylated state (from UniProt Q13263 1-835)
